Experimental data taken from article PMC8320897, “Inhibition of PI3K and MAPK pathways along with KIT inhibitors as a strategy to overcome drug resistance in gastrointestinal stromal tumors” (PLoS ONE, 2021).

What was measured:
Type in all cases: cell-based
[1] = system: GIST-T1; experiment: Cell proliferation assay (Cell Counting Kit-8), drug screen; details: Homo sapiens, GISTT1; cell viability after 72 hours of treatment
[2] = system: GIST-T1/670; experiment: Cell proliferation assay (Cell Counting Kit-8); details: Homo sapiens, GISTT1; cell viability after 72 hours of treatment
[3] = system: GIST-T1/10R; experiment: Cell proliferation assay (Cell Counting Kit-8); details: Homo sapiens, GISTT1; cell viability after 72 hours of treatment
[4] = system: GIST882; experiment: Cell proliferation assay (Cell Counting Kit-8), drug screen; details: Homo sapiens, cell viability after 72 hours of treatment

CNC(=O)c1ccccc1Sc1ccc2c(/C=C/c3ccccn3)n[nH]c2c1 [Axitinib]
IC50 [1]: < 1 nM
IC50 [2]: 500 nM
IC50 [3]: 500 nM
IC50 [4]: < 10 nM
